According to patent US7045591B2 (Hoffmann-La Roche Inc., priority 2000, dated 2006):

Assay: general procedure: Fmoc solid-phase peptide synthesis; Fmoc-Linker-BHA resin (Rink linker on benzhydrylamine resin) or Wang resin; HBTU and DIC preferred, with HOBT
Settings: whole synthesis
[1] = side-chain lactam ring, sequence written open

In the case of “Penta-cyclo(Asp-Lys)-Asp-4-MeApc-(D)Phe-Arg-Trp-Lys-NH2”, the isolated yield was 14%.
“Penta-(Asp-Lys)-Asp-3-MeO-Appc-(D)Phe-Arg-Trp-Lys-NH2” showed an isolated yield [1] of 13%.
Work on “Penta-(Asp-Lys)-Asp-5-ClAtc-(D)Phe-Cit-Trp-Lys-NH2 (peak 2)” yielded an isolated yield [1] of 5.4%.
With “Penta-(Asp-Lys)-Asp-5-BrAtc-(D)Phe-Arg-Trp-Lys-NH2” the isolated yield [1] was 6%.
With “Penta-cyclo(Asp-Lys)-Asp-2-MeAppc-(D)Phe-Arg-Trp-Lys-NH2” the isolated yield was 15%.
“Cyclo(succinic acid-Dpr)-succinic acid-Apc-(D)Phe-Arg-Trp-Dpr-NH2” gave an isolated yield of 8%.
In the case of “Penta-(Asp-Lys)-Asp-5-ClAtc-(D)Phe-Arg-Trp-Lys-NH2 (peak 2)”, the isolated yield [1] was 4%.
“Cyclo(maleic acid-Dpr)-maleic acid-Apc-(D)Phe-Arg-Trp-Dpr-NH2” showed an isolated yield of 8%.
With “Ac-Nle-cyclo(Cys-Cys)-Cys-(D,L)Atc-(D)Phe-Arg-Trp-Cys-NH2” the isolated yield was 5.0%.
Work on “Penta-(Asp-Lys)-Asp-5-Me-(D,L)Atc-(D)Phe-Arg-Trp-Lys-NH2” yielded an isolated yield [1] of 13%.
“Ac-Nle-cyclo(Cys-Cys)-Cys-Apc-(D)Phe-Arg-Trp-Cys-NH2” showed an isolated yield of 4.7%.
In the case of “Penta-cyclo(Asp-Lys)-Asp-4-ClAppc-(D)Phe-Arg-Trp-Lys-NH2”, the isolated yield was 14%.
“Penta-cyclo(Cys-Cys)-Cys-5-Br(D,L)Atc-(D)Phe-Arg-Trp-Cys-NH2” gave an isolated yield of 5.2%.
For “Penta-cyclo(Asp-Lys)-Asp-Apc-(D)Phe-Arg-N-methyl(2)Nal-Lys-NH2”, the isolated mass (scale 0.4 mmol) was 43 mg and the isolated yield (scale 0.4 mmol) was 10%.
“Penta-cyclo(Glu-Lys)-Glu-Apc-(D)Phe-Arg-Trp-Lys-NH2” gave an isolated yield of 15%.
For “Penta-(Asp-Lys)-Asp-5-BrAtc-(D)Phe-Cit-Trp-Lys-NH2 (peak 2)”, the isolated yield [1] was 4.8%.
Work on “Penta-cyclo(Asp-Lys)-Asp-Apc-(D)Phe-Arg-(2)Nal-Lys-NH2” yielded an isolated mass (scale 0.4 mmol) of 55 mg and an isolated yield (scale 0.4 mmol) of 14%.
With “Penta-cyclo(Asp-Dbr)-Asp-Apc-(D)Phe-Arg-Trp-Dbr-NH2” the isolated yield was 9%/o.
Substance “Penta-cyclo(Asp-Orn)-Asp-Apc-(D)Phe-Arg-Trp-Orn-NH2” has an isolated yield of 13%.
“Penta-cyclo(Asp-Lys)-Asp-Appc-(D)Phe-Arg-Trp-Lys-NH2” gave an isolated yield of 14%.
In the case of “Penta-cyclo(Asp-Lys)-Asp-4-MeOApc-(D)Phe-Arg-Trp-Lys-NH2”, the isolated mass (scale 0.4 mmol) was 49 mg and the isolated yield (scale 0.4 mmol) was 12%.
“Penta-cyclo(Asp-Dpr)-Asp-Apc-(D)Phe-Arg-Trp-Dpr-NH2” showed an isolated yield of 8%.
“Penta-cyclo(Asp-Lys)-Asp-4-Adpc-(D)Phe-Arg-Trp-Lys-NH2” showed an isolated yield of 11%.
For “Penta-(Asp-Lys)-Asp-5-BrAtc-(D)Phe-Arg-Trp-Lys-NH2 (peak 2)”, the isolated yield [1] was 5%.
“Penta-(Asp-Lys)-Asp-5-EtO-(D,L)Atc-(D)Phe-Arg-Trp-Lys-NH2” showed an isolated yield [1] of 13%.
“Penta-cyclo(Asp-Lys)-Asp-4-ClApc-(D)Phe-Arg-Trp-Lys-NH2” gave an isolated yield of 12%.
“Penta-cyclo(Asp-Lys)-Asp-3-MeOApc-(D)Phe-Arg-Trp-Lys-NH2” showed an isolated yield of 12%.
Substance “Penta-cyclo(Asp-Lys)-Asp-Apc-(D)Phe-Cit-Trp-Lys-NH2” has an isolated yield of 20%.
In the case of “Penta-cyclo(Asp-Lys)-Asp-2-iPrAppc-(D)Phe-Arg-Trp-Lys-NH2”, the isolated yield was 14%.
“Penta-cyclo(Asp-Lys)-Asp-Achc-(D)Phe-Arg-Trp-Lys-NH2” showed an isolated yield of 13%.
With “Penta-cyclo(Asp-Lys)-Asp-Abc-(D) Phe-Arg-Trp-Lys-NH2” the isolated yield was 14%.
“Penta-cyclo(Asp-Lys)-Asp-4-OHApc-(D)Phe-Arg-Trp-Lys-NH2” showed an isolated mass (scale 0.4 mmol) of 55 mg and an isolated yield (scale 0.4 mmol) of 13%.
Substance “Penta-cyclo(Asp-Lys)-Asp-4-MeAppc-(D)Phe-Arg-Trp-Lys-NH2” has an isolated yield of 14% and a crude mass (scale 0.4 mmol) of 254 mg.
In the case of “Cyclo(succinic acid-Lys)-succinic acid-Apc-(D)Phe-Arg-Trp-Lys-NH2”, the crude mass (scale 0.4 mmol) was 220 mg, the isolated mass (scale 0.4 mmol) was 40 mg and the isolated yield (scale 0.4 mmol) was 11%.
“Ac-cyclo(Asp-Dpr)-Asp-Apc-(D)Phe-Arg-Trp-Dpr-NH2” gave an isolated yield of 8%.
For “Penta-(Asp-Lys)-Asp-5-BrAtc-(D)Phe-Cit-Trp-Lys-NH2 (peak 1)”, the isolated yield [1] was 5,6%.
Substance “Penta-(Asp-Lys)-Asp-5-iPr-(D,L)Atc-(D)Phe-Arg-Trp-Lys-NH2” has an isolated yield [1] of 13%.
With “Penta-cyclo(Asp-Lys)-Asp-4-PhOAppc-(D)Phe-Arg-Trp-Lys-NH2” the isolated yield was 13%.
With “Penta-(Asp-Lys)-Asp-5-Et-(D,L)Atc-(D)Phe-Arg-Trp-Lys-NH2” the isolated yield [1] was 12%.
For “Cyclo(phthalic acid-Lys)-phthalic acid-Apc-(D)Phe-Arg-Tip-Lys-NH2”, the crude mass (scale 0.4 mmol) was 220 mg, the isolated mass (scale 0.4 mmol) was 35 mg and the isolated yield (scale 0.4 mmol) was 10%.
With “Penta-(Asp-Lys)-Asp-5-MeO-(D,L)Atc-(D)Phe-Arg-Trp-Lys-NH2” the isolated yield [1] was 13%.
Substance “Penta-(Asp-Lys)-Asp-5-ClAtc-(D)Phe-Cit-Trp-Lys-NH2 (peak 1)” has an isolated yield [1] of 5.8%.
“Penta-cyclo(Asp-Lys)-Asp-Apc-(D)Phe-Arg-(2S,3S) beta methyl-Trp-Lys-NH2” showed an isolated yield of 10%.
“Cyclo(maleic acid-Lys)-maleic acid-Apc-(D)Phe-Arg-Trp-Lys-NH2” gave a crude mass (scale 0.4 mmol) of 230 mg, an isolated mass (scale 0.4 mmol) of 38 mg and an isolated yield (scale 0.4 mmol) of 11%.
For “Cyclo(phthalic acid-Dpr)-phthalic acid-Apc-(D)Phe-Arg-Trp-Dpr-NH2”, the isolated yield was 8%.
In the case of “Penta-cyclo(Asp-Lys)-Asp-Apc-(D)Phe-Arg-Trp-Lys-NH2”, the isolated mass (scale 0.4 mmol) was 53 mg and the isolated yield (scale 0.4 mmol) was 13%.
Work on “Penta-cyclo(Asp-Lys)-Asp-3-MeAppc-(D)Phe-Arg-Trp-Lys-NH2” yielded an isolated yield of 14%.
In the case of “Penta-(Asp-Lys)-Asp-5-iPrO-(D,L)Atc-(D)Phe-Arg-Trp-Lys-NH2”, the isolated yield [1] was 13%.
Work on “Penta-cyclo(Asp-Lys)-Asp-4-EtOApc-(D)Phe-Arg-Trp-Lys-NH2” yielded an isolated mass (scale 0.4 mmol) of 60 mg and an isolated yield (scale 0.4 mmol) of 14%.
“Penta-(Asp-Lys)-Asp-5-ClAtc-(D)Phe-Arg-Trp-Lys-NH2 (peak 1)” showed an isolated yield [1] of 6%.
Work on “Penta-cyclo(Asp-Lys)-Asp-4-iPrOApc-(D)Phe-Arg-Trp-Lys-NH2” yielded an isolated mass (scale 0.4 mmol) of 63 mg and an isolated yield (scale 0.4 mmol) of 15%.
With “Ac-Nle-Cyclo(Asp-Lys)-Asp-His-(D)Phe-Arg-Trp-Lys-NH2” the isolated mass (scale 0.4 mmol) was 60 mg and the isolated yield (scale 0.4 mmol) was 15%.
Substance “Penta-cyclo(Asp-Lys)-Asp-Apc-(D)Phe-Ala-Trp-Lys-NH2” has an isolated yield of 20%.
